Measurements as given in patent publication US20180243435A1 (AbbVie / Abbott, published 2018).
These are yes or no findings as the source states them, for the method shown. Some binding calls cover weakened binding; strength is not graded here.

Amino acid sequences for entries named in this document (tags omitted). A change or cut given only in a name is not applied to a line headed by its entry.
UniProt Q9NYJ7: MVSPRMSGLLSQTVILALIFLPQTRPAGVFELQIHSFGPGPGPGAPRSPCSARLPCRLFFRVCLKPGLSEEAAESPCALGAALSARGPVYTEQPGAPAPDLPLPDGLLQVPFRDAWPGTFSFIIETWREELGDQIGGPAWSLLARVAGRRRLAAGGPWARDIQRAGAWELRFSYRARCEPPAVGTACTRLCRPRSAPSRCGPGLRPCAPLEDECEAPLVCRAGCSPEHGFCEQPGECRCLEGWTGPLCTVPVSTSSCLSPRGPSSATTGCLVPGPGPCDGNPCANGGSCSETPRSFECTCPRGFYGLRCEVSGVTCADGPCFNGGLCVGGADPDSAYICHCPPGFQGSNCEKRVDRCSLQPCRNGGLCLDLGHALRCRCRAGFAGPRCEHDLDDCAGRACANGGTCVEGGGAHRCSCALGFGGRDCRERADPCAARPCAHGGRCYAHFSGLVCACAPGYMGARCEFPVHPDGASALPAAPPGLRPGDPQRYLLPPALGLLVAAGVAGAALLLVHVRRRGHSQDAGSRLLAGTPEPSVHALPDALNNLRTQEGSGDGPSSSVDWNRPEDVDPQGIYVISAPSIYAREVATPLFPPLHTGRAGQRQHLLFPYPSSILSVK

B1: SC16.67 (antibody, V domains shown)
VH: EVQLVETGGGLVQPKGSLKLSCAVSAFTFTTYAMNWVRQAPGKGLEWVARIRNKSNNYATYYADSVKDRFTISRDDSQSMLYLQMNNLKIEDTAMYYCVFYYDYVYWGQGTLVTVSA
VL: QAVVTQESALTTSPGETVTLTCRSSTGAVTTSNYANWIQEKPDHLFTGLIGGTNNRAPGVPARFSGSLIGDKAALTITGAQTEDEAIYFCGLWYSNHLVFGGGTKLTVL
B2: SC16.72 (antibody, V domains shown)
VH: EVQLQQSGPELVKPGASVKMSCKASGYTFTSYVMHWVKQKPGQGLEWIGYINPYNDGTKYNEKFKGKATLTSDKSSSTAYMELSSLTSEDSAVYYCARLRSRAMDYWGQGTSVTVSS
VL: ENVLTQSPAIMSASLGEKVTMSCRASSSVNYMSWYQQKSDASPKLWIYYTSNLAPGVPARFSGSGSGNSYSLTISSMEGEDAATYYCQQFTSSPYTFGGGTKLEIK
B3: SC16.73 (antibody, V domains shown)
VH: QVQLQQSGAELMKPGASVKISCKANGYTFSSYWIEWLRQRPGHGLEWIGEILPGSDNSNYNEKFKGKATFTADTSSNTAYMQLSSLTSEESAVYYCTRGLRRDGSYYYVMEHWGQGTSVTVSS
VL: DIQMTQSPSSLSASLGERVSLTCRASQDIGYSLNWLQQEPDGTIKRLIYATSSLDSGVPKRFSGSRSGSDYSLTISSLESEDFVDYYCLQYASSPWTFGGGTKLEIK
B4: SC16.78 (antibody, V domains shown)
VH: EVKLVESGGGLVKPGGSLKLSCAASGFTFGRYVMSWVRQTPEKKLEWVASITSGGTTYYPDSVKGRFTISRDNARNILYLQMSSLRSEDTAMYYCARVYYHYDDIFAYWGQGTLVTVSA
VL: DIKMTQSPSSMYASLGERVTITCKASQDINSYLSWFQQKPGRSPKTLIYRANRLVDGVPSRFSGSGSGQDYSLTISSLDYEDMGIYYCLQYDEFPFTFGSGTKLEIK
B5: SC16.79 (antibody, V domains shown)
VH: EVQLQQSGPELVKPGASVKISCKTSGYTFTEYTMHWVKQSHGKSLEWIGGINPNNGGTSYNQKFKGKATLTVDKSSSTAYMELRSLTSEDSAVYYCARGPAWFAYWGQGTLVTVSA
VL: DIVMSQSPSSLAVSAGEKVTMSCKSSQSLLNSRTRKNYLAWYQQKPGQSPKLLIYWASTRESGVPDRFTGSGSGTDFTLTISSVQAEDLAVYYCKQSYNLYTFGGGTKLKIK
B6: SC16.80 (antibody, V domains shown)
VH: EVQLQQSGPELVKPGGSKKISCKASGYSFTGYSMNWVKQSHGKNLEWIGLINPYSGGTIYNQKFKGKATLTVDKSSSTAYMELLSLTSEDSAVYYCARRSDYPLVYWGQGTLVTVSA
VL: ETTVTQSPASLSMAIGEKVTIRCITSTDIDDDMIWYQQKPGEPPKLLISEGNTLRPGVPSRFSSSGYGTDFVFTIENMLSEDVADYYCLKRDDLPYTFGGGTQVEIK
B7: SC16.81 (antibody, V domains shown)
VH: QVQLKESGPVLVAPSQSLSITCTVSGFSLTSYGVHWVRQPPGKGLEWLGVIWAGGSTNYNSALMSRLSISKDNSKSQVFLKMNSLQTDDTAMYYCAKQGNFYAMDYWGQGTSVTVSS
VL: QIVLTQSPAIMSASLGERVTLTCTASSSVSSSYLHWYQQKPGSSPKLWIYSTSNLASGVPTRFSGSGSGTSYSLRISSMEAEDAATYYCHQYNRSPLTFGAGTKLELK
B8: SC16.84 (antibody, V domains shown)
VH: EVQLQQSGPELVKPGASMKISCKASGYSFTGYTMNWVKQSHGKNLEWIGLINPYNGGTTYNQKFKGKATLTVDKSSSTAYMELLSLTSEDSAVYYCALGYYGNYRRYFDVWGAGTTVTVSS
VL: DIQMTQSPSSLSASLGGKVTITCKASQDIKKYIAWYQHKPGKGPRLLIHYTSTLEPGIPSRFSGSGSGRDYSFSISNLEPEDIATYYCLQYDILWTFGGGTKLEIK
B9: SC16.8 (antibody, V domains shown)
VH: QAQLQQSGAELVRPGTSVKVSCKASGYAFTNYLIEWVKQRPGQGLEWIGVINPGTGGTNYNENFKGKATLTADKSSSTAYMQLSSLTSDDSAVYFCARSPYDYHEGAMDYWGQGTSVTVSS
VL: EIQMTQSPSSMSASLGDRITITCQATQDIVKNLNWYQQKPGKPPSFLIYYAIELAEGVPSRFSGSGSGSDYSLTISNLESEDFADYYCLQFYEFPFTFGAGTKLELK
B10: SC16.101 (antibody, V domains shown)
VH: QVTLKESGPGILQPSQTLSLTCSFSGFSLSTSGMGVGWIRQPSGKGLEWLAHIWWDDVKRYNPALKSRLTISKDASSSQVFLKIASVDTAETATYYCAHILDRAYYFDYWGQGTTLTVTS
VL: QIVLTQSPAIMSASLGERVTMTCTASSSVSSSYLHWYQQKPGSSPKLWIYSTSNLASGVPARFSGSESGTSYSLTISNMEAEDAATYYCHQYHRSPFTFGSGTKLEIK
B11: SC16.103 (antibody, V domains shown)
VH: QVTLKESGPGILKPSQTLSLTCSFSGFSLSTSGMGIGWIRQPSGKGLEWLAHIWWDDDKYYNPSLKSQLTISKDSSRNQVFLKITSVDTADTATYYCARRGTAYYFDYWGQGTTLTVSS
VL: DIVLTQSPASLAVSLGQRATISCRASKSVSTSGYSYMHWYQQKPGQPPKLLIYLASNLESGVPARFSGSGSGTDFTLNIHPVEEEDAATYYCQHSRELPLTFGAGTKLELK
B12: SC16.104 (antibody, V domains shown)
VH: QVQLKESGPDLVQPSQTLSLTCTVSGFSLTFYGVHWVRQPPGKGLEWVGTMGWDDKKYYNSALKSRLSISRDTSKNQVFLKLSSLQTEDTAMYYCTRGGTGFDYWGQGTTLTVSS
VL: QIVLSQSPAILSASPGEKVTMTCRASSSVSYIHWYRQKPGSSPKPWIYATSNLASGVPARFSGSGSGTSYSLTISRVEAEDAATYYCQQWSSNPPTFGAGTKLELK
B13: SC16.105 (antibody, V domains shown)
VH: QVQLQQPGAELVKPGASVKLSCKASGYTFTSYWMHWVKQRPGQGLEWIGVINPSNGRTNYNEKFKSKATLTVDKSSSTAYMQLSSLTSEDSAVYYCARRRELGTLYAMDYWGQGTSVTVSS
VL: DIVMTQSHKFMSTSVGDRVSITCKASQDVGTAVAWYQQKPGQSPKLLIYWASIRHTGVPDRFTGSGSGTDFTLTISNVQSEDLADYFCQQYSSYPLTFGAGTKLELK
B14: SC16.106 (antibody, V domains shown)
VH: QVQLKQSGPGLVAPSQSLFITCTVSGFSLTSYEINWVRQPPGKGLEWLGVIWTGGSTNYNSALISRLSISKDNSKSLVFLKMNSLQTDDTAIYYCVRGVYAMDYWGQGTSVTVSS
VL: DIKMTQSPSSMYASLGERVTITCKASQDINSYLSWFQQKPGKSPKTLIYRANRLVDGVPSRFSGSGSGQDYSLTISSLEYEDMGIYYCLQYDEFPFTFGSGTKLEIK
B15: SC16.107 (antibody, V domains shown)
VH: EVQLQQSGPELVKPGASVKMSCKASGYTFTNYVMHWVKQKPGQGLEWIGYINPYNDGTKYNEKFKGKATLTSDKSSTTAYMALSSLTSEDSAVYYCAVAYYSNWGFAYWGQGTLVTVSA
VL: DIVMTQSHKFMSTSVGDRVSITCKASQDVNTAVGWYQQKPGQSPKLLIYSASYRYTGVPDRFTGSGSGTDFTFTISSVQAEDLAVYYCQQHYSSPYTFGGGTKVEIK
B16: SC16.109 (antibody, V domains shown)
VH: QIQLVQSGPELKKPGETVKISCKASGYTFTNYGMNWVKQAPGKGLKWMGWINTYTGEPAYADDFKGRFAFSLETSASAAYLQINNLKNEDTATFFCANMRPTRGFAYWGQGTLGTVSA
VL: QIVLTQSPAIMSASPGEKVTMTCSASSSVSYMYWYQQKPGSSPRLLIYDTSNLASGVPVRFSGSGSGTSFSLTISRMEAEDTATYYCQEWSGNPLTFGDGTKLELK
B17: SC16.110 (antibody, V domains shown)
VH: EVQLQQSGPGLVRTGASVKISCKASGYSFTGYYMHWVKQSHGKSLEWIGYISCYNGATTYNQNFKGKATFIVDTSSSTAYMQFNSLTSEDSAVYYCARSDGGHAMDYWGQGTSVTVSS
VL: NIVMTQTPKFLLVSAGDRVTITCKASQSVSNDVAWYQQKPGQSPKLLIYYASNRYTGVPDRFTGSGYGTDFTFTISTVQAEDLAVYFCQQDYSSPPTFGGGTKLEIK
B18: SC16.111 (antibody, V domains shown)
VH: EVQLQQSGPELEKPGASVKISCKASGYSFTGYNMNWVKQSNGKSLEWIGNIDPYYGGSSYKQKFEGKATLTVDKSSSTAYMQLKSLTSEDSAVYYCARGGSNFFDYWGQGTTLTVSS
VL: DIQMTQSPASLAASVGETVTITCRASENIYYSLAWYQQKQGKSPQLLIYNANSLEDGVPSRFSGSGSGTQYSMKINSMQPEDTATYFCKQTYDVPLTFGAGTKLELK
B19: SC16.10 (antibody, V domains shown)
VH: QVTLKESGPGILQSSQTLSLTCSFSGFSLSTSGMGVGWIRQPSGKGLEWLAHIWWDDVKRYNPVLKSRLTISKDTSSSQVFLKIASVDTADTATYYCARLVDDLYYFDYWGQGTTLTVSS
VL: QIVLTQSPAIMSASLGERVTMTCTASSSVSSSYLHWYQQKPGSSPKLWIYSTSNLASGVPTRFSGSGSGTSYSLTISSMEAEDAATYYCHQYHRSPFTFGSGTKLEIK
B20: SC16.114 (antibody, V domains shown)
VH: EVQLQQSGAELVKPGASVKLSCTASGFNIKDTYIHWVKQRPEQGLEWIGRIDPANGNTKYDPKFQGKATITPDTSSNTAYLQLSSLTSEDTAVYYCARSWRNYGSSFWYFDVWGAGTTVTVSS
VL: QIVLSQSPAILSASPGEKVTMTCRASSSVSYMHWYQQKPGSSPKPWIYATSNLASGVPARFSGSGSGTSYSLTISRVEAEDAATYYCQQWSSNPYTFGGGTKLEIK
B21: SC16.116 (antibody, V domains shown)
VH: QVQLKQSGPGRVQPSQSLSITCTVSGFSLTSNGVHWVRQSPGKGLEWLGVLWSGGSTDYNAAFISRLSISKDNYKSQVFFKMNSLQANDTAIYYCARNNNRYGAMDYWGQGTSVTVSS
VL: DIVMTQSPSSLTVTAGEKVTMSCTSSQSLLTSGNQKNYLTWYQQKPGQPPKLLIYWASTRESGVPDRFTGSGSGTDFTLTISSLQAEDLAVYYCQNDYSLTFGAGTKLELK
B22: SC16.117 (antibody, V domains shown)
VH: QVQLKESGPGLVAPSQSLSITCTVSGFSLTNYGVHWVRQPPGKGLEWLGVIWAGGITNYNSALMSRLSISEDNSKSQVFLKMNSLQTDDTAMYYCARNLGPYAMDYWGQGTSVTVSS
VL: DIQMNQSPSSLSASLGDTITITCHVSQNINVWLSWYQQKPGNIPKLLIQKASNLHTGVPSRFSGSGSGTGFTLTISSLQPEDIATYYCQQGQSYPFTFGSGTKLEIK

target: human DLL3 (human) (UniProt Q9NYJ7); assay: hybridoma screening: ELISA on immobilized DLL3 or flow cytometry on HEK-293T cells overexpressing hDLL3

binding, binds:
B1
B2
B3
B4
B5
B6
B7
B8
B9
B10
B11
B12
B13
B14
B15
B16
B17
B18
B19
B20
B21
B22
